One sequence from article PMC3680417, “Phosphorylation of the Leukemic Oncoprotein EVI1 on Serine 196 Modulates DNA Binding, Transcriptional Repression and Transforming Ability” can be followed below.

The subject of the series is T1, GST-Evi1 ZF1-7 S196D (mouse).
T1 sequence (looked up, limits assumed): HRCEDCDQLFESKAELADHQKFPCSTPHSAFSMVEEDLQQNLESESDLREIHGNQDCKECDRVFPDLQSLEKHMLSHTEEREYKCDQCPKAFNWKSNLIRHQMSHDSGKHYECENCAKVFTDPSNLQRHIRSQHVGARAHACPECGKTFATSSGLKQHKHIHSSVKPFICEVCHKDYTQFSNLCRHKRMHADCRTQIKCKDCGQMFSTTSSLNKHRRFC
In words: EMSA. The note with it: native 5% acrylamide gel; pH and temperature not stated; recombinant protein; protein details: GST (N-terminal, pGEX); label: 5' IRDye.

Construct, isoform or probe ends are uncertain for at least one entry. Weaker means in comparison with the reference protein, sequence or condition of that experiment. Protein sequences can lack the tags named with them.

As to “ACCCATGGAGCTTTGAGCCCTGTTATCTTGTCAGGGAAGTGTACCATGGA (double strand) [EVI1 ZF1-7 target EMSA probe]”, the binding result is on record as “binds more weakly”.
